ChEMBL document CHEMBL3885861, “Open TG-GATES”

Assays:
[1] = species on record: Rattus norvegicus; assay: Open TG-GATES - Regimen: Single; assay type: toxicity, organism-based, Sprague-Dawley; set-up: regimen Single, gender Male, age 6 weeks; settings: in vivo, po, route gavage
[2] = species on record: Rattus norvegicus; assay: Open TG-GATES - Regimen: Daily Repeat; assay type: toxicity, organism-based, Sprague-Dawley; set-up: regimen Daily Repeat, gender Male, age 6 weeks; settings: in vivo, po, route gavage
[3] = 100 mg/kg, 3 h, tissue Blood, dose level Low

COC(=O)C1=C(C)NC(C)=C(C(=O)OC)C1c1ccccc1[N+](=O)[O-] [NIFEDIPINE]
Ca ([1]; 0 mg/kg, 6 h, tissue Plasma, dose level Control): 10.5 mg/dL | APTT [1, 3]: 15.3 s | Neu [1, 3]: 22.6% | BUN ([1]; 100 mg/kg, 3 h, tissue Plasma, dose level Low): 23.2 mg/dL | ALT ([1]; 1000 mg/kg, 9 h, tissue Plasma, dose level High): 50.2 IU/L | Ca ([2]; 0 mg/kg, […], tissue Plasma, dose level Control, time 14 day): 11.2 mg/dL | Neu ([2]; 100 mg/kg, […], tissue Blood, dose level Low, time 14 day): 22.6% | TG ([2]; 100 mg/kg, […], tissue Plasma, dose level Low, time 14 day): 114 mg/dL | LDH ([2]; 300 mg/kg, […], tissue Plasma, dose level Middle, time 7 day): 98.4 IU/L | LIVER ([2]; 1000 mg/kg, 72 h, tissue Liver, dose level High, time 3 day): 11.2 g | Ca ([2]; 1000 mg/kg, 72 h, tissue Plasma, dose level High, time 3 day): 10.5 mg/dL | Ca ([2]; 1000 mg/kg, […], tissue Plasma, dose level High, time 7 day): 10.5 mg/dL
